# Experimental data published in article PMC4364341, “NBD delivery improves the disease phenotype of the golden retriever model of Duchenne muscular dystrophy” (Skeletal Muscle, 2014).
# Assays:
# Assay type in all cases: in vivo, dog
# wild type dogs = assay: Eccentric contraction decrement (ECD), wild type dogs; conditions: n = 3; for ECD (1-10): after 10 contractions; for ECD (1-30): after 30 contractions
# Body mass, GRMD dogs = conditions: n = 6
# [1] = Body mass, wild type dogs; conditions: n = 3
# [2] = NBD group, age 2 months (start of treatment)
# [3] = age 6 months, NBD 10 mg/kg IV 3x weekly for 4 months
sequence,measurement,setting,value
"TALDWSWLQTE [NBD, NBD peptide (…) fused to an Antennapedia protein transduction domain]",ECD (1-10),wild type dogs; [2],13.36 ± 2.65%
same,ECD (1-10),wild type dogs; [3],14.47 ± 7.31%
same,ECD (1-30),wild type dogs; [2],33.44 ± 10.3%
same,ECD (1-30),wild type dogs; [3],23.25 ± 17.4%
same,Body Mass,"Body mass, GRMD dogs; [2]",3.60 ± 0.27 kg
same,Body Mass,"Body mass, GRMD dogs; [3]",12.70 ± 2.81^1 kg
same,Body Mass,[1]; [2],4.99 ± 1.83 kg
same,Body Mass,[1]; [3],21.10 ± 3.15^1 kg
